# Measured values reported in PubChem BioAssay AID1347423 (Functional Genomics Laboratory (NCATS/FGL), 2020).
# Among all 52,000 sequences or so, about 210 (0.4%) were called active.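 Rule for the calls: active = gene whose silencing raises cell survival under the drug, median off-target-corrected z-score across its silencing RNAs 2 or more; inactive = the rest.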 The list shows a part of the results.
# Test: Resistance to Poly (ADP-Ribose) Polymerase inhibitor: Gene Identification via Genome-wide siRNA Screen
# Conditions: mouse BRCA2 R2336H ES cells, olaparib, CellTiter-Glo viability; hits give high values
# Summary of the method: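 Genome-wide siRNA screen (3 siRNAs/gene, 20 nM) in mouse ES cells carrying hypomorphic BRCA2 R2336H; olaparib 500 nM added 48 h post-transfection, CellTiter-Glo viability 72 h later. Normalized to plate-median negative control; MAD z-scores, gene median, seed-adjusted.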
row,Sequence,z-score
1,GCCAGUAGUAGUAGAAUAATT against LOC225594,inactive: -2.3
2,GGGAAAGCACUCCAACACATT against BC037594,inactive: 1.25
3,GGUUUUGUUGCAUGGUAAGTT against Ubb,inactive: -1.61
4,CCGACUCCUACAGAUUAUUTT against Amac,inactive: -1.11
5,AAAUCCUGUUAGGGAGUGUTT against Olfr57,inactive: 0.672
6,GGCUAGCUUAUCAAGCAACTT against AW319487,inactive: 0.38
7,GGCAUUUCUCGACCUAUGGTT against Hoxc6,inactive: 0.898
8,GAGCUGUGAAUGCCUGUGGTT against Lyzs,inactive: -1.72
9,GCAUAUUGAGGAAUUCCUATT against 4831416G18Rik,inactive: 1.09
10,GGCUUCAAGACUUGUGUGATT against Rdh1,inactive: 0.00528
11,GUCCUUCUUCUUUGGGUUGTT against Olfr1356,inactive: -1.2
12,GCUGAUGUGAAUGGCUCACTT against Gmeb2,inactive: -1.14
13,GGAAGGAGAAUAUUUGACATT against D430044G18Rik,inactive: 1.57
14,GCUCAUCAUGUGAAACUUUTT against Sara2,inactive: -0.0401
15,GCAGGCUCGCUGUAACUACTT against 9430098E02Rik,inactive: -0.468
16,GGAAAAGGUGGCCUACACATT against BC049711,inactive: -0.593
17,GGAAGACCAAUAGUACUGCTT against Il1rn,inactive: -0.596
18,GGCUUUGAGAGUGGUGUAUTT against Sgsh,inactive: -1.1
19,CCUGUAUACGCAGAACACUTT against Gpc1,inactive: 0.198
20,GCGAACAUGUGUUUUACGUTT against Hist1h4h,inactive: -0.155
21,GGGUUUGUUAAGUCCUGUGTT against Mlze,inactive: -2.93
22,GCCACAAGUUAAUGCUCUUTT against Rfx5,inactive: 0.144
23,GCCGAUUCUUCAAUGUGCGTT against 2610028I09Rik,inactive: -0.0822
24,GCUAAUACACCUUAUGAGATT against 2700084L22Rik,inactive: 1.2
25,GCCUUGAAUACCACAUUUCTT against Arl10a,inactive: -2.1
26,GGAAGAAAUAUACAAAGACTT against 5730511K23Rik,inactive: 0.33
27,GCAAUGUGUCAGGCACACATT against Pax2,inactive: 1
28,GGCAGAAGAAGAAGUUAUATT against Gja10,inactive: -0.341
29,GGACCACAGCUGGAUAUAUTT against Sik2,inactive: -0.369

# An excerpt of these results, as tab-separated lines.
row	Sequence	z-score
2	GGGAAAGCACUCCAACACATT against BC037594	inactive: 1.25
3	GGUUUUGUUGCAUGGUAAGTT against Ubb	inactive: -1.61
4	CCGACUCCUACAGAUUAUUTT against Amac	inactive: -1.11
5	AAAUCCUGUUAGGGAGUGUTT against Olfr57	inactive: 0.672
6	GGCUAGCUUAUCAAGCAACTT against AW319487	inactive: 0.38
